From patent publication US20140107218A1, “METHODS FOR MAINTAINING EYE HEALTH AND AMELIORATING OPTHALMIC MALADIES IN ANIMALS” (NESTEC SA, priority 2012, published 2014) come the findings set out here.

This series is described as follows: Metabolite analysis of lens fractions from young and senior dogs. Also noted: species or system dog. The conditions noted are these: for Fold Change In Polyamines In Young Vs. Old Dog Lens Fractions, Nucleus: Young Vs. Old Canine: inner nuclear lens layer; for Fold Change In Polyamines In Young Vs. Old Dog Lens Fractions, Nucleus: Young Vs. Old Canine / Fold Change In Polyamines In Young Vs. Old Dog Lens Fractions, Epithelial/Cortical: Young Vs. Old Canine: young (2-3 years old) vs senior (10+ years old) dogs; for Fold Change In Polyamines In Young Vs. Old Dog Lens Fractions, Epithelial/Cortical: Young Vs. Old Canine: outer epithelial/cortical lens layer; for Amount of polyamine in young dog lenses compared to senior dog lenses (in words): young vs senior dog lenses.

Take `NCCCCN` [Putrescine, putrescine]: the “Fold Change In Polyamines In Young Vs. Old Dog Lens Fractions, Nucleus: Young Vs. Old Canine” value came out at 1; the “Fold Change In Polyamines In Young Vs. Old Dog Lens Fractions, Epithelial/Cortical: Young Vs. Old Canine” value is recorded as 1.45; the “Amount of polyamine in young dog lenses compared to senior dog lenses (in words)” value was “higher in the young dog lenses”.
On the same counts, the results for `NCCCCNCCCN` [Spermidine, spermidine] are 1.71, 1.79 and “higher in the young dog lenses”.
Turning to `NCCCNCCCCNCCCN` [Spermine, spermine], the “Fold Change In Polyamines In Young Vs. Old Dog Lens Fractions, Nucleus: Young Vs. Old Canine” value stood at 1; the “Fold Change In Polyamines In Young Vs. Old Dog Lens Fractions, Epithelial/Cortical: Young Vs. Old Canine” value turned out to be 2.78; the “Amount of polyamine in young dog lenses compared to senior dog lenses (in words)” value is “higher in the young dog lenses”.
